The target in the test is talin (209-400), the talin1 F2F3 part of the APP-talin chimera (UniProt P26039). Put plainly: crystal structure; APP(754-764)-talin(209-400) chimera, hanging drop, 0.1 M tris pH 8.5, 10% ethanol, 18 C; P212121, one copy in the asymmetric unit; the APP tail binds F3 of a symmetry-related molecule; both purified.

Chains of the proteins cited; added tags and fusions are not shown. Lines headed by an entry give the natural chain unless they say otherwise; changes in a name come on top. Residues count along the entry.
UniProt P26039, residues 209-400: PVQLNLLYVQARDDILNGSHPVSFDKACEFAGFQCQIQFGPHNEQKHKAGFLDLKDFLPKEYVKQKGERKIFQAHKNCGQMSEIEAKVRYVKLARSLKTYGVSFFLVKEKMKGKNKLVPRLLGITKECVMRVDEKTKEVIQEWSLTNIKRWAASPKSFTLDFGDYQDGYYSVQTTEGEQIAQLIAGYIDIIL

These are yes or no findings as the source states them, for the method shown. Some results given as binding are weak or reduced against the parent protein; the word gives no strength.

For the molecule QNGYENPTYKF (domain or fragment) [APP (754-764), the APP part of the APP-talin chimera], the binding entry is given as “binds”.

(Values after article PMC11597407.)
